From PubChem BioAssay AID328 (DTP/NCI, 2004)
The list does not hold the whole screen: it is rich in T/C values a quarter to a half above the control, in often repeated tests (any T/C) and in doses without a T/C. Further doses and runs are listed elsewhere. T/C is the treated group as % of the vehicle group. Some entries give survivors of the animals treated and no T/C: the source files T/C as zero there, which appears to mark a toxic dose or a test without result, not a measured value. Some doses without a T/C left all or most animals alive at the check, yet need not have been tolerated: the source hardly ever lists a survival T/C far under the control, and the zero likely stands for such cases as well. Counts of survivors are from the toxicity check (mostly the fifth day) where no day follows; animals may have died later. Schedules are NCI's codes, read here as Q, the interval in days (D) or hours (H), X, the number of doses. For survival time, this PubChem deposit counts one and a half times the control or more as active, and values a quarter to a half above the control carry no call in these data; other NCI protocols may use other cut-offs.

Tested on: BDF1 mice, P388 leukemia ip, median survival T/C
Experiment: NCI In Vivo Anticancer Drug Screen. Data for tumor model P388 Leukemia (intraperitoneal) in B6D2F1 (BDF1) mice
Conditions: T/C endpoint: median survival time, higher T/C = longer survival
Outline: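 Reported as T/C, where T is the survival measurement in dosed animals and C the same measurement in vehicle controls.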

[1] = dose: 200.0 mg/kg/injection, schedule: Q01DX009 (ip), vehicle: saline with Tween-80
[2] = dose: 300.0 mg/kg/injection, schedule: Q01DX009 (ip), vehicle: saline with Tween-80

CCCCCC#CC1OC12CCCCC2 (stereo not given)
T/C (dose: 100.0 mg/kg/injection, schedule: Q01DX009 (ip), vehicle: saline with Tween-80): 133 % of control | T/C [1]: 128 % of control | survivor count [2]: 5 of 6

O=C(/C=N/O)Nc1cc(Cl)c(Cl)cc1Cl
T/C [1]: 128 % of control | survivor count [2]: 3 of 6

CCCCCCC[CH2][Sn](=[O])[CH2]CCCCCCC
survivor count (dose: 50.0 mg/kg/injection, schedule: Q01DX009 (ip), vehicle: Klucel (hydroxypropylcellulose) (HPC)): 3 of 6 | T/C (dose: 50.0 mg/kg/injection, schedule: Q04DX003 (ip), vehicle: Klucel (hydroxypropylcellulose) (HPC)): 136 % of control | survivor count (dose: 75.0 mg/kg/injection, schedule: Q04DX003 (ip), vehicle: other): 6 of 6 | survivor count (dose: 100.0 mg/kg/injection, schedule: Q01DX009 (ip), vehicle: Klucel (hydroxypropylcellulose) (HPC)): 1 of 6 | survivor count (dose: 200.0 mg/kg/injection, schedule: Q04DX003 (ip), vehicle: Klucel (hydroxypropylcellulose) (HPC)): 6 of 6

Cc1nnc2sc3c(Cl)c4nn5c(C)nnc5sc4c(Cl)c3nn12
survivor count [1]: 3 of 6

C=CCN(CC=C)P(=O)(N1CC1C)N1CC1C (stereo not given)
T/C (dose: 0.8 mg/kg/injection, schedule: Q01DX009 (ip), vehicle: saline): 126 % of control | T/C (dose: 1.6 mg/kg/injection, schedule: Q01DX009 (ip), vehicle: saline): 126 % of control

N#C[C@@H]1C2C=CC(CC2)[C@H]1C#N
survivor count (dose: 10.0 mg/kg/injection, schedule: Q04DX003 (ip), vehicle: saline with Tween-80): 3 of 6 | survivor count (dose: 20.0 mg/kg/injection, schedule: Q04DX003 (ip), vehicle: saline with Tween-80): 0 of 6
